Reference: patent publication US20130095059A1, “INHALED NO DONOR KMUPS DERIVATIVE PREVENTING ALLERGIC PULMONARY VASCULAR AND BRONCHIAL INFLAMMATION VIA SUPPRESSED CYTOKINES, INOS AND INFLAMMATORY CELL COUNTS IN ASTHMA MODEL” (priority 2007, published 2013)
At least one compound was matched to its structure with a doubt left.

Key:
pulmonary artery rings = assay: Isometric force of 5-HT-constricted pulmonary artery rings; design: species or system Wistar rats; settings: 0.1-100 μM
Procedure: Wistar rats were euthanized with an overdose of sodium pentobarbital (60 mg/kg, i.p.) before open-chest surgery. During surgery, a thoracic retractor was used to help isolate the pulmonary artery. […] The pulmonary artery ring preparations were stretched to a basal tension of 1 g and allowed to equilibrate for 60-90 min. After equilibration, pulmonary artery rings were constricted with 5-HT (10 μM) to prime the tissues and check the functionality of the endothelium (at least 80% relaxation in response to acetylcholine 1 μM). […] The effect of KMUP-1 on NOS and 5-HT was also studied in vessels pre-incubated with the NOS inhibitor L-NAME (100 μM) 20 min before 5-HT administration. The percentage of relaxation was estimated using the following equation: relaxation (%)=(maximal contraction−relaxation level)/(maximal contraction-basal level)×100. Data was obtained from serotonin-induced maximal contractile responses in pulmonary artery.

PASMCs = assay: Microculture tetrazolium test (MTT), PASMCs proliferation; type: cell-based, Wistar rats; settings: 10 μM; 5-HT 10 μM 24 h
Procedure: At the end of this period, MTT (2 g/L) was added to each well, and incubation proceeded at 37° C. for 4 h. Thereafter, the medium was removed and the cells were solubilized in 150 μL DMSO.

CCC(C)(C)C(=O)O[C@H]1C[C@@H](C)C=C2C=C[C@H](C)[C@H](CC[C@@H]3C[C@@H](O)CC(=O)O3)[C@H]21 [Simvastatin, reference compound]
5-HT (10 μM) contractile response in pulmonary artery (pulmonary artery rings): inhibited | PASMCs proliferation (MTT assay) (PASMCs): inhibited
